# Test results published in PubChem BioAssay AID602313 (National Center for Advancing Translational Sciences (NCATS), 2012).
# Out of some 390,000 compounds screened, about 760 (0.19%) were called active. Inconclusive means that the source gave no clear call. Such entries were picked first, then a sample of the others. The call rests on the fitted dose curve; in most records, active means well fitted inhibition curve with a large enough effect; inconclusive means small, poorly fitted or top-dose-only effect; inactive means flat fitted curve, though single readings scatter. Potencies beside an inconclusive call are fits to weak or partial responses and may not hold up.
# Experiment: qHTS for Inhibitors of Vif-A3F Interactions: qHTS; further: nearly all actives have a fitted effect of over 65% in size
# Details: HeLa A3F-eYFP + Vif (tagged APOBEC3F with the HIV-1 protein that degrades it), YFP fluorescence increase; series mostly up to 46.1 µM
# Method in brief: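 HeLa cells stably expressing A3F-eYFP plus Vif, plated and incubated overnight at 37 deg C, then exposed to compounds overnight at 37 deg C. Blocked degradation read as raised yellow fluorescence (Ex 488/Em 500-530).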
# Potency means the concentration at half of the fitted maximal effect.
row,Compound,Potency
1,CCOc1ccc(CSCCNC(=S)Nc2ccccc2)cc1,"inconclusive: 35.5 µM [inhibitor, single point]"
2,N#C/C(=C\c1ccc([N+](=O)[O-])o1)C(=O)Nc1ccc(F)cc1,active: 22.4 µM
3,C#CCN1C(=O)S/C(=C\c2cc3c(cc2OC)OCO3)C1=O,"inconclusive: 7.08 µM [inhibitor, partial curve, poor fit]"
4,Cc1ccc(C2Nc3cccc4cccc(c34)N2)cc1,"inconclusive: 17.8 µM [inhibitor, single point]"
5,CSc1ccc(-c2sc(Nc3ccccc3)n[n+]2-c2ccccc2)cc1,"inconclusive: 28.2 µM [inhibitor, single point]"
6,CCc1nccn1CCC(=O)N1CCCC(Nc2ccc(F)cc2)C1 (stereo unspecified),"inconclusive: 35.5 µM [inhibitor, single point]"
7,CCc1ccc(C(=O)c2cn(Cc3ccccc3)c3cc(OC)c(OC)cc3c2=O)cc1,inactive
8,COc1ccc(-c2nnc(OCc3nc4ccccc4n3C)c3ccccc23)cc1,inactive
9,Cn1nnnc1SCCNC(=O)C1CCC(=O)N(CCc2cccc(F)c2)C1 (stereo unspecified),inactive
10,O=C(NC(=S)NNC(=O)c1ccccc1O)c1ccccc1,inactive
11,CCCC(=O)N1CC(=O)Nc2ccc(C)cc2C1c1ccccc1 (stereo unspecified),"inconclusive: 25.1 µM [inhibitor, single point]"
12,Cc1noc(C(=O)Nc2ccc(C#N)cc2)c1Cl,"inconclusive: 35.5 µM [inhibitor, single point]"
13,CN(C)Cc1c(C(=O)N/N=C/c2ccccc2OCc2c(F)cccc2Cl)nnn1-c1nonc1N,"inconclusive: 0.891 µM [inhibitor, partial curve, poor fit]"
14,COC(=O)c1cc(NC(=S)Nc2cc(Cl)cc(Cl)c2)cc(C(=O)OC)c1,"inconclusive: 28.2 µM [inhibitor, single point]"
15,Cc1ccc(-c2csc(NC(=O)CSc3nnc4c(n3)[nH]c3ccccc34)n2)cc1,"inconclusive: 11.2 µM [inhibitor, partial curve]"
16,O=c1[nH]c2ccc(S(=O)(=O)Nc3cc(Cl)ccc3O)cc2o1,"inconclusive: 15.8 µM [inhibitor, partial curve, poor fit]"
17,CC(=O)Nc1ccc(C(=O)Nc2cc(S(=O)(=O)N3CCOCC3)ccc2N2CCOCC2)cc1,"inconclusive: 15.8 µM [inhibitor, single point]"
18,Cc1cc(/C=C2\SC(=S)N(C)C2=O)c(C)n1-c1cccc(O)c1,"inconclusive: 22.4 µM [inhibitor, partial curve, poor fit]"
19,Cc1nc(NC(=O)/C=C/c2ccccc2)n[nH]1,inactive
20,O=C1CC(c2ccccc2)=NN1c1ccccc1,inactive
21,CCCCn1c(-c2cccs2)nc2nc3ccccc3nc21,"inconclusive: 25.1 µM [inhibitor, single point]"
22,CNc1c([N+](=O)[O-])cnn1-c1ccccc1F,"inconclusive: 12.6 µM [inhibitor, single point]"

row,Compound,Potency
1,COc1ccc(-c2nc(SCCOc3cc(C)ccc3C(C)C)n3[nH]c(=O)cc3n2)cc1,"inconclusive: 35.5 µM [inhibitor, single point]"
2,Cc1ccc(S(=O)(=O)Nc2nc3n(n2)C(c2ccc(Cl)cc2)C=C(c2ccccc2)N3)cc1 (stereo unspecified),"inconclusive: 31.6 µM [inhibitor, single point]"
3,CC(=O)Nc1ccc2cc3ccc(NC(C)=O)cc3nc2c1,"inconclusive: 35.5 µM [inhibitor, partial curve, poor fit]"
4,COc1ccc(/C=C/C(=O)O)cc1S(=O)(=O)NCc1cccnc1,"inconclusive: 5.62 µM [inhibitor, single point]"
5,CC1=C(C(=O)OC2CCCCCC2)C(c2c(Cl)cccc2Cl)CC(=O)N1 (stereo unspecified),"inconclusive: 35.5 µM [inhibitor, single point]"
6,Cc1ccc(-n2nnnc2CNC(=O)c2ccc([N+](=O)[O-])o2)cc1C,"inconclusive: 6.31 µM [inhibitor, single point]"
7,O=C(c1ccco1)N(Cc1ccc2c(c1)OCO2)Cc1cc2cc3c(cc2[nH]c1=O)OCO3,"inconclusive: 35.5 µM [inhibitor, single point]"
8,Cc1c(NC(=S)NC(NC(=O)C(C)(C)C)C(Cl)(Cl)Cl)c(=O)n(-c2ccccc2)n1C (stereo unspecified),"inconclusive: 35.5 µM [inhibitor, partial curve, poor fit]"
9,O=C1Nc2ccccc2C12OC1CCCCC1O2 (stereo unspecified),inactive
10,O=C(Nc1cccc(NC(=O)c2ccc(Br)o2)n1)c1ccc(Br)o1,inactive
11,O=C(COC(=O)c1ccc2[nH]c3c(c2c1)CCCC3)Nc1ccccc1,"inconclusive: 35.5 µM [inhibitor, single point]"
12,CC(=O)Nc1cccc(C(=O)/C=C/c2ccc(N(C)C)cc2)c1,"inconclusive: 35.5 µM [inhibitor, single point]"
13,COC(=O)c1cc(S(=O)(=O)Nc2cc(S(=O)(=O)N(C)C)ccc2C)oc1C,"inconclusive: 6.31 µM [inhibitor, single point]"
14,CCCN1C2CCCC1CC(NC(=S)NCCCOCC)C2 (stereo unspecified),"inconclusive: 6.31 µM [inhibitor, single point]"
15,Cc1n[nH]c(=S)n(/N=C/c2cccs2)c1=O,"inconclusive: 2.51 µM [inhibitor, full curve, poor fit]"
16,COCCCn1c(=O)/c(=C\c2ccccc2OC(F)F)s/c1=C(/C#N)C(N)=O,"inconclusive: 25.1 µM [inhibitor, single point]"
17,CC1=C(C(=O)OCc2ccccc2)C(c2cccnc2)c2c(n(C)c(=O)n(C)c2=O)N1 (stereo unspecified),"inconclusive: 10 µM [inhibitor, partial curve, poor fit]"
18,O=C(Cn1c(=O)n(Cc2ccco2)c(=O)c2sc3ccccc3c21)Nc1ccccc1C(F)(F)F,"inconclusive: 10 µM [inhibitor, partial curve]"
19,CSc1ccc(CCNC(=O)CCc2c(C)nc3c4cccnc4nn3c2C)cc1,"inconclusive: 12.6 µM [inhibitor, single point]"
20,CCS(=O)(=O)N1Cc2ccccc2CC1C(=O)N(C)CC(=O)Nc1cccc(F)c1 (stereo unspecified),"inconclusive: 4.47 µM [inhibitor, partial curve, poor fit]"
21,COC(=O)c1cnn(-c2ccccc2)c1/C=N/NC(=S)Nc1ccccc1,"inconclusive: 6.31 µM [inhibitor, single point]"
22,CC(=O)Oc1cc2c(C(C)=O)coc2c2ccccc12,inactive

row,Compound,Potency
1,Fc1ccc(NC(=S)NCc2ccc3c(c2)OCO3)cc1,"inconclusive: 35.5 µM [inhibitor, single point]"
2,Cc1ccc(C2=NN=C(NC(=O)C(F)(F)F)SC2)cc1,inactive
3,CCc1ccc(-c2cc(C(F)(F)F)n3nc(C(=O)Nc4cnn(Cc5ccc(C)cc5)c4)cc3n2)s1,active: 11.2 µM
4,Cc1cc(NC(=O)c2ccco2)cc(-c2nc3cc(Cl)ccc3o2)c1O,active: 11.2 µM
5,Cc1ccc2c(NC(=S)NC(=O)c3ccccc3)cccc2n1,"inconclusive: 20 µM [inhibitor, single point]"
6,CC(=O)Nc1ccccc1-c1nc2ccccc2n(C(C)C(=O)Nc2cccc(C)c2C)c1=O (stereo unspecified),inactive
7,Cc1ccc2ccc3cc(C(=O)Nc4ccc(C)c(F)c4)nc3c2[nH]1,"inconclusive: 15.8 µM [inhibitor, partial curve, poor fit]"
8,C[n+]1c(-c2ccccc2)cc2c(=Cc3ccccc3)c3ccccc3n21,inactive
9,NC(=O)c1cccnc1Sc1ccc(Cl)cc1,"inconclusive: 2.51 µM [inhibitor, full curve, poor fit]"
10,O=C(Nc1nnc(COc2ccccc2)s1)c1ccco1,"inconclusive: 5.62 µM [inhibitor, single point]"
11,CC(C)CNC(=O)C(=O)NCCCN1CCOCC1,inactive
12,COC(=O)C1=C(C)N(Cc2ccc(C)cc2)C(=O)/C1=C\c1cc(OC)c(OC)c(OC)c1,"inconclusive: 11.2 µM [inhibitor, partial curve, poor fit]"
13,Cc1ccccc1C([O-])=Nc1ccc[n+](-c2nc3ccccc3nc2NS(=O)(=O)c2ccccc2)c1,active: 12.6 µM
14,COCCn1c(C)cc(/C=C(\C#N)C(=O)OCC(=O)Nc2ccc(S(N)(=O)=O)cc2)c1C,"inconclusive: 35.5 µM [inhibitor, single point]"
15,O=C(Cc1ccc(F)cc1)Nc1cccc(-c2nc3cccnc3s2)c1,inactive
16,COc1ccc(-c2cc(C(=O)NCCc3ccccc3)c3c(-c4ccccc4)[nH]nc3n2)cc1,"inconclusive: 17.8 µM [inhibitor, partial curve, poor fit]"
17,COc1ccc(Br)cc1CN1CCN(C(=O)c2ccco2)CC1,"inconclusive: 2.24 µM [inhibitor, partial curve, poor fit]"
18,Cc1nc(-c2ccccc2)sc1-c1nc(-c2ccncc2)ncc1S(=O)(=O)c1ccccc1,"inconclusive: 35.5 µM [inhibitor, single point]"
19,COCCCNC(=S)N/N=C/c1ccc(N(C)C)cc1,"inconclusive: 14.1 µM [inhibitor, partial curve, poor fit]"
20,Cc1cc2oc(C(=O)Nc3sc4c(c3C(=O)NCc3ccccc3)CCCC4)cc(=O)c2cc1C,"inconclusive: 17.8 µM [inhibitor, partial curve, poor fit]"
21,CN(C)c1ccc(CNC(=O)CN2C(=O)CCn3nc(-c4cn(C)c5ccccc45)cc32)cc1,inactive
22,O=C(NC(=S)Nc1ccc(Cl)cn1)C12CC3CC(CC(C3)C1)C2,"inconclusive: 25.1 µM [inhibitor, single point]"

# 4 entries out of the list, sorted by formula weight, ascending.
row,Compound,Potency
11,CC(C)CNC(=O)C(=O)NCCCN1CCOCC1,inactive
5,Cc1ccc2c(NC(=S)NC(=O)c3ccccc3)cccc2n1,"inconclusive: 20 µM [inhibitor, single point]"
15,O=C(Cc1ccc(F)cc1)Nc1cccc(-c2nc3cccnc3s2)c1,inactive
18,Cc1nc(-c2ccccc2)sc1-c1nc(-c2ccncc2)ncc1S(=O)(=O)c1ccccc1,"inconclusive: 35.5 µM [inhibitor, single point]"
